Test: peptide synthesis
Details: late stage modification step

(S)-1-((S)-4-amino-2-((3S,4S)-4-((S)-1-((S)-1-carboxy-4-guanidinobutylamino)-1-oxo-propan-2-ylcarbamoyl)pyrrolidine-3-carboxamido)-4-oxobutanoyl)pyrrolidine-2-carboxylic acid
step yield (run 1): 67% | step yield (run 2): 71%
